# Assay results published in publication doi:10.1101/2020.06.24.169326.
# B1: ParB1 with T18 tag, expressed in E. coli (protein, UniProt Q9RYD8 1-288)
# chain: MSKKSSLGRGLDALLTKKGEPVAQAGTGTQVQTLKIERIAQAAYQPRQVFEPESLAELAQSIREKGVLQPLLVRPRGDAFEIVAGERRWRASQLAGLTELPVMIRDLGDREALEIAIVENLQREDLGPLEEARAYQALLDQGLNQEGVAQAVGKGRSTVTNALRLLTLPEPVLRALDEGSISASHARAVLTQPEADRLWAFEQIRSRGLNVREAEALKRERGGRDKGQGAPIKVNPPRAYRQLELDLSRRTGTRVKITGEDKGRVELNYGSREELDRILQILGYEAEE
# B2: ParB2 with T18 tag, expressed in E. coli (protein, UniProt Q9RZE7 1-293)
# chain: MTRRRPERRRDLLGLLGETPVDLSQANDIRALPVNELKVGSTQPRRSFDLERLSELAESIRAHGVLQPLLVRSVDGQYEIVAGERRWRAAQLAGLAEVPVVVRQLSNEQARAAALIENLQRDNLNVIDEVDGKLELIALTLGLEREEARKRLMQLLRAVPGDEHEQLDQVFRSMGETWRTFAKNKLRILNWPQPVLEALRAGLPLTLGSVVASAPPERQAELLKLAQNGASRSQLLQALQTPSQTSAVTPEHFAKVLSSKRFLSGLDTPTREALDRWLARMPERVRQAIDEQS
# B3: DNA replication initiation protein DnaA fused to the T25 domain of CyaA (pKNTDA) (protein, UniProt Q9RYE7 1-466)
# chain: MSQEIWADVLAYVRKNVSDLEYTTWFAPVKPLGVQEGSLLLGVRNSFTKDWFRDHYLELLLAALRSLGAEHPQVEFQVLPAAQDALLLPNDPPPAPEAAAPTPKTKAAPTPPPSTPGDNRKTLNPKYTFENFVVGPNNNLAHAAALAVAESPGKAYNPLFIYGDVGLGKTHLMHAVGHYLAERFPEKRIEYVSTETFTNELINAIRDDKTTQFRNRYRSVDLLLVDDIQFLAGKERTQEEFFHTFNALYESNKQIILSSDRPPKDIQTLEGRLRSRFEWGLITDIQSPEYETRVAILKMNAEQGHITIPQEVLELIARQVTSNIRELEGALMRVVAFASLNNVPFSRAAAAKALSNVFAPQEAKVEMTDVLRQVAAHYGTTPDLIRGSGRARDIVVPRQVAQYLIRALTDHSLPEIGQFFGRDHSTVMHAVSKITEQMGKDPELAATVNTLRNRIQGKEEEEEVGA
# Legend:
# [1] = target: Deinococcus radiodurans topoisomerase IB fused to the T25 domain of CyaA (pKNTtopoIB) (Deinococcus radiodurans) (UniProt Q9RWH8); assay: two-hybrid
# [2] = target: Deinococcus radiodurans topoisomerase IB fused to the T18 domain of CyaA (pUTtopoIB) (Deinococcus radiodurans) (UniProt Q9RWH8); assay: two-hybrid
binder,measurement,setting,value
B1,binding,[1],binds
B2,binding,[1],binds
B3,binding,[2],binds

# Results are given in words; binding and its absence hold for the method and conditions named. Binding can be weak; no strength is given. Sequences can lack the tags named with a protein.
